Measured values published in PMC6906326.
No constants are given. Whether binding was seen depends on the method and setting. In cells and extracts the contact can be indirect. Some entries that bind do so weakly or less than the wild type.

Chains of the proteins cited; added tags and fusions are not shown.
UniProt P46937: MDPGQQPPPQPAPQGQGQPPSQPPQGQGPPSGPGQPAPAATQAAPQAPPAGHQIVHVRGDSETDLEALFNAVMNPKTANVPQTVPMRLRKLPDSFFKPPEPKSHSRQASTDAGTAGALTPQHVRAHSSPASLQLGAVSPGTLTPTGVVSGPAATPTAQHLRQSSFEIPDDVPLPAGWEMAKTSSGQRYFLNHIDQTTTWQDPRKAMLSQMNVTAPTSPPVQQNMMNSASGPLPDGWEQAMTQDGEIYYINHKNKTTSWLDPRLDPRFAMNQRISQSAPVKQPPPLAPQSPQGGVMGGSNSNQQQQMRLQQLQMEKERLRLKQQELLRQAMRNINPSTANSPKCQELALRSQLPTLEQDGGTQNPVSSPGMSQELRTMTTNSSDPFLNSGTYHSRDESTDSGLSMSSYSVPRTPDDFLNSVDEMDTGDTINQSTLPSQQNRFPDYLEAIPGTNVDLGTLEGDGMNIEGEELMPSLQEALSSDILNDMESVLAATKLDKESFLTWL
UniProt O95863: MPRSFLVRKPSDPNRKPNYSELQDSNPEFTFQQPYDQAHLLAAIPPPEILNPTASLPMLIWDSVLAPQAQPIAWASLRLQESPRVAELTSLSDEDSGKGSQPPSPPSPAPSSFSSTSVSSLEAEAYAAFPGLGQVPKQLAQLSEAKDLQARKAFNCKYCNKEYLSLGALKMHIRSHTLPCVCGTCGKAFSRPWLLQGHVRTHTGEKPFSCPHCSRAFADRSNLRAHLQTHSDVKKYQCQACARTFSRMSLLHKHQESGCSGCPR
UniProt Q15672: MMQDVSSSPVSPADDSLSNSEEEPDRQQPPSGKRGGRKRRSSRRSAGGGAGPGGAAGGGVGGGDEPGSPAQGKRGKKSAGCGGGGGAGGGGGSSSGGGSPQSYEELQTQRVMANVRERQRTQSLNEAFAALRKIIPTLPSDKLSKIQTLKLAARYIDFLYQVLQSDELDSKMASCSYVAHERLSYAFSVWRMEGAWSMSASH

Target: YAP1 (human (endogenous in MKN28 and AGS)) (UniProt P46937)
Assay: co-IP; endogenous proteins from MKN28 and AGS lysates; protein A/G magnetic beads pre-incubated with anti-YAP1 or anti-snail1 antibody at 4 °C, washed three times with extraction buffer, western blot; also done after sh-CLDN6 knock-down (YAP1-snail1 interaction became weak)

Substance | binding
snail1 (from UniProt O95863 1-264) | binds
twist1 (from UniProt Q15672 1-202) | no binding
